Reference: PubChem BioAssay AID1347076 (National Center for Advancing Translational Sciences (NCATS), 2019)
In all, about 400,000 compounds went through this assay and about 13,000 (3.2%) were called active. The shares of active, inactive and inconclusive entries below differ from those in the screen. Calls follow the shape of the dose curve; as a rule, active = well fitted cell-killing curve with a large enough effect; inconclusive = small, poorly fitted or top-dose-only effect, or effect the other way; inactive = flat fitted curve, though single readings scatter. Potencies of inconclusive entries are doubtful fits and often do not repeat.

Test: qHTS assay for MDR1-selective chemotherapeutics: Primary screen using the drug-selected MDR subline cells KB-V1; also: nearly all actives have a fitted effect of over 60% in size
Conditions: KB-V1 MDR cells viability, CellTiter-Glo, 72 h; activity change, negative = cytotoxicity: at 46.1 µM (top of the series)
In short: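 Luminescent ATP read-out (CellTiter-Glo, 10 min) measures survival of drug-selected KB-V1 MDR cells after 72 h, 37 degrees C compound exposure. Medium: phenol-red-free DMEM, 10% FBS. Values from fitted concentration-response curves.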
% is scaled to controls: 0 for no effect and ±100 for the full control effect; potency is read from the fitted curve at half-maximal effect.

Row | SMILES | Potency | activity change, negative = cytotoxicity
1 | COc1ccc(-n2nc3c(N4CCC(C(=O)N5CCC(C)CC5)CC4)nnc(C)c3c2C)cc1 | inactive | –
2 | CCOC1=C2CN(S(=O)(=O)c3ccc(C)cc3)[C@@H](c3cccc4ccccc34)C[C@H]2[C@H]2C(=O)N(c3ccccc3)C(=O)[C@H]2C1 | – | inactive: 0%
3 | CC(=O)Nc1ccc(S(=O)(=O)NCc2ccc(C(=O)N3CCOCC3)cc2)cc1 | inconclusive: 29.1 µM [rising, single point] | –
4 | CC(=O)C(Sc1nc(N2CCOCC2)nc(N2CCOCC2)n1)C(=O)Nc1ccccc1 (configuration not stated) | – | inactive: 3.41%
5 | O=S1(=O)N=C(Nc2nncs2)c2ccccc21 | – | inactive: -0.117%
6 | Cc1nc(-c2ccccc2)sc1C(=O)/C=C/c1ccc(Cl)cc1 | inconclusive: 13 µM [cytotoxic, partial curve] | –
7 | COc1ccccc1NC(=O)CSc1nnnn1Cc1ccccc1 | inconclusive: 7.31 µM [cytotoxic, partial curve] | –
8 | CCOC(=O)Nc1cccc2ccccc12 | – | inactive: -4.01%
9 | CCOc1ccc(N(CC(=O)NC2CCCC2)C(=O)c2ccc(C)s2)cc1 | inconclusive: 3.66 µM [cytotoxic, partial curve, poor fit] | –
10 | CCOC(=O)C(C)Oc1ccc(NC(=O)C(Cl)(Cl)Cl)cc1 (configuration not stated) | inconclusive: 25.9 µM [rising, single point] | –
11 | CCCC(=O)Nc1ccc(NC(=O)c2ccccc2Cl)nc1 | inconclusive: 29.1 µM [cytotoxic, single point] | –
12 | COc1ccc(-c2cc(CNC(=O)CN(C)Cc3ccccc3)on2)cc1 | active: 2.59 µM | –
13 | O=C(Nc1cccc(S(=O)(=O)N2CCCCC2)c1)C1CCC1 | inconclusive: 11.6 µM [cytotoxic, partial curve] | –
14 | Cc1cc(C)c(CSc2ncc(-c3ccc([N+](=O)[O-])cc3)[nH]2)c(C)c1 | active: 23.1 µM | –
15 | O=C(Nc1nnc(-c2ccccn2)o1)c1cccc(Cl)c1 | inconclusive: 16.4 µM [cytotoxic, single point] | –
16 | Cc1ccc(C2(c3noc(CN4CCC(C(=O)N5CCOCC5)CC4)n3)CCCC2)cc1 | inconclusive: 4.61 µM [cytotoxic, partial curve] | –
17 | COC(=O)c1c(NC(=O)CCN2CCOCC2)sc2c1CCCC2 | inconclusive: 4.61 µM [rising, full curve, poor fit] | –
18 | O=C(Cn1c(=O)ccc2cc(S(=O)(=O)N3CCCC3)ccc21)Nc1ccccc1 | – | inactive: 21.2%
19 | Cc1ccc2cc3c(NC(=O)c4ccco4)nn(C)c3nc2c1 | inconclusive: 29.1 µM [cytotoxic, single point] | –
20 | CC(C)C(=O)N1CCN(c2ccccc2NC(=O)c2cccc3ccccc23)CC1 | – | inactive: -2.35%
21 | CC(C)Sc1nc(N2CCCC2)c2c(c1C#N)CC(C)(C)OC2 | inconclusive: 25.9 µM [cytotoxic, single point] | –
22 | CC(C=CC(O)=C1C(=O)CNC1=O)=C[C@@H](C)C1OC2(C)OC(C(=O)C3O[C@@]32C)C1C (some centres not stated) | – | inactive: -23%
23 | CC1CC(C)CN(C(=S)NC2CCCCC2)C1 (configuration not stated) | – | inactive: -14.9%
24 | Cc1ccc(C(C)C)c(OCC(=O)NN=C2CCCC(=O)C2)c1 | inconclusive: 13 µM [rising, partial curve, poor fit] | –

Row | SMILES | Potency | activity change, negative = cytotoxicity
25 | COc1cc2[nH]c(=O)n(CCCC(=O)NC3CCCCC3)c(=O)c2cc1OC | – | inactive: -13.5%
26 | CCn1c(SCC(=O)N2CCCCC2)nc2c(c1=O)SC(C)C2 (configuration not stated) | – | inactive: 4.58%
27 | CCC1Oc2ccc(C)cc2N(CC(=O)N(Cc2ccc(C)o2)C2CC(C)(C)NC(C)(C)C2)C1=O (configuration not stated) | inconclusive: 20.6 µM [cytotoxic, single point] | –
28 | COc1c(CC=C(C)C)c(O)cc2oc(=O)c3c4ccc(O)cc4oc3c12 | inconclusive: 20.6 µM [rising, single point] | –
29 | N#Cc1ccc(C(=O)Nc2cc(C3CC3)nn2-c2ccccc2)cc1 | inconclusive: 29.1 µM [rising, single point] | –
30 | COC(=O)c1cc2ccsc2n1Cc1cc(=O)n2ccccc2n1 | inconclusive: 14.6 µM [cytotoxic, partial curve] | –
31 | CCCn1nc(NC(=O)C2CCCO2)c2cc3cc(C)ccc3nc21 (configuration not stated) | – | inactive: 0%
32 | Nc1ncncc1-c1ccc(F)cc1 | inconclusive: 0.58 µM [rising, full curve] | –
33 | COc1cc(N/N=C(\C)c2ccc(N)cc2)nc(-c2ccccc2)n1 | – | inactive: 31.9%
34 | N#Cc1c(-n2cccc2/C=N/O)sc2c1CCCC2 | active: 23.1 µM | –
35 | Cc1nn(-c2ccccc2)c2c1N(CC(=O)N1CCN(c3ccc(Cl)cc3)CC1)C(=O)CS2 | – | inactive: 5.73%
36 | CN(C)CCCN=c1cc(-c2ccccc2)oc2ccc(Cl)cc12 | inconclusive: 25.9 µM [cytotoxic, partial curve, poor fit] | –
37 | Cc1nn(-c2ccccc2)c2c1N(CCCC(=O)NC(C)c1ccccc1)C(=O)CS2 (configuration not stated) | – | inactive: 9.83%
38 | COc1ccc(CN=CC2=C(O)CNC2=O)cc1OC | inconclusive: 14.6 µM [rising, partial curve] | –
39 | CC(C)(C)c1nc(SCC(=O)Nc2nc3c(s2)CCCC3)c2ccccc2n1 | inconclusive: 16.4 µM [cytotoxic, single point] | –
40 | CCC(CC)C(=O)N(C)c1c(C)nc2c(OCc3ccc(C#N)cc3)cccn12 | – | inactive: 3.17%
41 | Cc1cc(C)cc(Oc2nc(C(F)(F)F)nc3ccccc23)c1 | inconclusive: 32.6 µM [cytotoxic, single point] | –
42 | CCCCCCCCN1C(=O)[C@H](CC(=O)NCc2cccc3ccccc23)C[C@@]2(C(=O)OCC)CCCC=C12 | inconclusive: 29.1 µM [cytotoxic, single point] | –
43 | CCOC(=O)c1c(C)[nH]c(C(=O)OCC(=O)Nc2sc(C(=O)N(C)C)c(C)c2C(=O)OCC)c1C | inconclusive: 0.731 µM [cytotoxic, full curve, poor fit] | –
44 | O=C(c1cccs1)N1CCC(c2nc3c(nnn3Cc3ccccc3)c(=O)[nH]2)CC1 | inconclusive: 29.1 µM [rising, single point] | –
45 | CN(C)c1ccc(C=C2C(=O)OC(C)(C(C)(C)C)OC2=O)cc1 (configuration not stated) | inconclusive: 13 µM [rising, partial curve] | –
46 | CC(C)OCCCNC(=O)COc1ccc2oc3c(c2c1)CCCC3 | – | inactive: -2.77%
47 | COc1cccc(C(=O)Nc2cccc(-c3nnc(-c4ccco4)o3)c2)c1 | inconclusive: 11.6 µM [cytotoxic, partial curve, poor fit] | –
48 | CC1CCC(NC(=O)c2ccc(CSc3nc4ccncc4n3Cc3ccc(F)cc3)cc2)CC1 (configuration not stated) | inconclusive: 29.1 µM [cytotoxic, single point] | –

4 entries from above, as labelled records:
CCC1Oc2ccc(C)cc2N(CC(=O)N(Cc2ccc(C)o2)C2CC(C)(C)NC(C)(C)C2)C1=O (configuration not stated)
  Potency: inconclusive: 20.6 µM [cytotoxic, single point]
COc1c(CC=C(C)C)c(O)cc2oc(=O)c3c4ccc(O)cc4oc3c12
  Potency: inconclusive: 20.6 µM [rising, single point]
N#Cc1ccc(C(=O)Nc2cc(C3CC3)nn2-c2ccccc2)cc1
  Potency: inconclusive: 29.1 µM [rising, single point]
COC(=O)c1cc2ccsc2n1Cc1cc(=O)n2ccccc2n1
  Potency: inconclusive: 14.6 µM [cytotoxic, partial curve]

The results go on.

Row | SMILES | Potency | activity change, negative = cytotoxicity
49 | CCOc1ccc(NC(=O)CSc2ccc(-c3ccccn3)nn2)cc1 | active: 2.91 µM | –
50 | COc1ccc2c(c1)sc(=N)n2CC(=O)Nc1cc(C)cc(C)c1 | – | inconclusive: -32.7% [cytotoxic]
51 | Nc1nnc(CC(=O)N/N=C/c2ccc(-c3ccccc3Cl)o2)s1 | inconclusive: 2.31 µM [rising, partial curve, poor fit] | –
52 | COc1ccc(OC)c(-c2nnc(SCC(=O)N3CCCc4ccccc43)o2)c1 | – | inactive: -17%
53 | COc1ccccc1N(C(=O)c1ccco1)C(C(=O)NC1CCCC1)c1ccc(N2CCOCC2)cc1 (configuration not stated) | – | inactive: 14.4%
54 | Cc1ccccc1S(=O)(=O)N1[C@@H](c2ccccc2)C(C(=O)O)=CC[C@H]1c1ccc(Cl)cc1 | – | inactive: 5.63%
55 | COc1ccc(C(CC(=O)Nc2ncccc2C)N2Cc3ccccc3C2=O)cc1OC (configuration not stated) | inconclusive: 29.1 µM [rising, single point] | –
56 | CCCC[n+]1ccn(-c2nc3ccccc3nc2[N-]S(=O)(=O)c2ccccc2)c1 | – | inactive: -9.18%
57 | COc1cc(/C=C/c2ccc3cccc(O)c3n2)cc(OC)c1OC | inconclusive: 1.46 µM [cytotoxic, full curve] | –
58 | Cc1noc(NS(=O)(=O)c2ccc(NC(=O)c3cc(-c4ccccc4Cl)nc4ccccc34)cc2)c1C | inconclusive: 29.1 µM [rising, single point] | –
59 | Cc1cc(C)n2nc(CNC(=O)c3ccc(Cl)cc3)nc2n1 | – | inactive: -12.4%
60 | Cc1cccc(N2CCN(C(=O)c3ccc(Cl)c(S(=O)(=O)NCc4ccco4)c3)CC2)c1C | active: 13 µM | –
61 | COc1cccc(C(C)(O)c2nc(-c3cccc4cccnc34)cs2)c1 (configuration not stated) | – | inconclusive: 5.31%
62 | CC(C)(C)C(=O)NNc1nc(-c2ccccc2)c2cc(Br)ccc2n1 | inconclusive: 8.2 µM [cytotoxic, partial curve] | –
63 | CCCCNC(=O)CSc1nc2ccc(NC(=O)CSc3nnc(N)s3)cc2s1 | – | inactive: 6.17%
64 | CCOC(=O)N1CCC(NC(=O)CCC(=O)N2CC(C)Oc3ccccc32)CC1 (configuration not stated) | inconclusive: 20.6 µM [cytotoxic, partial curve, poor fit] | –
65 | CCCc1cc(-c2nc(N)ncc2-c2csc(C)n2)c(O)cc1OC | – | inactive: -2.8%
66 | NC(=O)c1c(NC(=O)C2COc3ccccc3O2)sc2c1CCN(Cc1ccccc1)C2 (configuration not stated) | inconclusive: 6.51 µM [cytotoxic, partial curve, poor fit] | –
67 | COc1ccccc1C(=O)NC(CCSC)C(=O)N1CCC(Cc2ccccc2)CC1 (configuration not stated) | – | inactive: -4.47%
68 | CC(=O)Cn1ncc(Br)c(Br)c1=O | inconclusive: 23.1 µM [cytotoxic, single point] | –
69 | CC(C)C(=O)c1cn(CC(=O)N2CCCc3ccccc32)c2ccccc12 | active: 5.17 µM | –
70 | Cc1cccc(NC(=O)c2ccc(C(=O)c3ccccc3)cc2)n1 | inconclusive: 8.2 µM [cytotoxic, partial curve] | –
71 | Cc1ccc(NC(=O)CNC(=O)c2cccs2)c(O)c1 | inconclusive: 25.9 µM [rising, single point] | –
72 | Cc1ccc2c(c1)cc(CN(Cc1ccc3c(c1)OCO3)C(=O)c1ccccc1)c1nnnn12 | – | inactive: -20.9%
